Publication PMC4634908

Columns and labels:
Experiment in all cases: two-hybrid; MatchMaker system; TaCBL in pGBKT7 (BD), TaCIPK in pGADT7 (AD), co-transformed into yeast Y187; growth on TDO (SD/-Trp/-Leu/-His) with 10 mM 3-AT; + growth, - no growth
[1] = target: TaCBL9 (Triticum aestivum cv. Chinese Spring) (UniProt V9LSA5)
[2] = target: TaCBL4 (Triticum aestivum cv. Chinese Spring) (UniProt V9LSA1)
[3] = target: TaCBL7 (Triticum aestivum cv. Chinese Spring) (UniProt V9LSE0)

TaCIPK22 (from UniProt A0A9R1F072)
binding [1]: no binding
binding [2]: no binding

TaCIPK26 (from UniProt A0A9R1MTK5)
binding [1]: no binding
binding [2]: binds
binding [3]: binds

TaCIPK31 (from UniProt A0A9R1GM64)
binding [1]: binds
binding [2]: binds
binding [3]: binds

TaCIPK32 (from UniProt W5ECV3)
binding [1]: no binding
binding [2]: no binding
binding [3]: no binding

No constants are given. Whether binding was seen depends on the method and setting. Binding can be weak; no strength is given.
